Data from patent publication CN116462616A, “炔酰胺类化合物及其应用” (Jinan University, priority 2022, dated 2023).

System: HepG2 cells [HepG2细胞]
Assay: Proteomics experiment for target confirmation of YN-1/4 in HepG2 cells
Format: cell-based, human
Conditions: 50 μM, 37 °C, 5 h

For `C#Cc1ccc(S(=O)(=O)N(C)C#C)cc1` [YN-1], the “number of target proteins identified” value was 999 and the “number of target proteins overlapping between YN-1 and YN-4” value was 211.
